Paper PMC10649565
These are yes or no findings as the source states them, for the method shown. Binding seen in cells or lysates may run through a third protein. Binding can be weak; no strength is given.

Amino acid sequences for entries named in this document (tags omitted). A change or cut given only in a name is not applied to a line headed by its entry.
UniProt O14893: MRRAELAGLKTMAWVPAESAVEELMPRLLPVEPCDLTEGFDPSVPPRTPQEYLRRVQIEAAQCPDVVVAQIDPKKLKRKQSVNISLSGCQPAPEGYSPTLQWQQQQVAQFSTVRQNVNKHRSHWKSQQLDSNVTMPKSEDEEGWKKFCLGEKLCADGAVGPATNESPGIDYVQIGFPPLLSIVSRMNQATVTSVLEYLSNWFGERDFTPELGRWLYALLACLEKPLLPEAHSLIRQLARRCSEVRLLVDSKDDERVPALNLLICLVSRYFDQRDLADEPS
UniProt P23443: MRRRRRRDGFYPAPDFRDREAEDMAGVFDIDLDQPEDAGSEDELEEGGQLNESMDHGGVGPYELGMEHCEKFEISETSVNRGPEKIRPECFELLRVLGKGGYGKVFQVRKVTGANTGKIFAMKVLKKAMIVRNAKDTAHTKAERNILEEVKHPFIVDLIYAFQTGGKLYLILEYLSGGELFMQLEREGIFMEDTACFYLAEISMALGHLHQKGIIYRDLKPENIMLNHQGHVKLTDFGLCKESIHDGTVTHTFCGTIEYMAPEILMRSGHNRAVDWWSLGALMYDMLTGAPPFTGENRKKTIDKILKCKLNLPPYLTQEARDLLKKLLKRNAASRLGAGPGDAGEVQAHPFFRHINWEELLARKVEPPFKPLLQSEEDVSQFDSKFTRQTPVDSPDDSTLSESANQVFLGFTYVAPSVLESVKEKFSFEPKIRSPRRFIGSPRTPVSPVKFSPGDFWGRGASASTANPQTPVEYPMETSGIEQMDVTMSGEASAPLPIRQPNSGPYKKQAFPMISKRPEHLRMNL

Experiments:
[1] = biological target: GST-Gemin2 wild type (wt) (human) (UniProt O14893); experiment: pull-down; recombinant GST proteins on glutathione Sepharose 4B incubated 2 h at 4 °C with HEK293T S100 (cytoplasmic) extract, washed 3 times with lysis buffer; Western blot; only the target purified
[2] = biological target: GST-Gemin2 S166D (human) (UniProt O14893); experiment: as above
[3] = biological target: GST-Gemin2 S166A (human) (UniProt O14893); experiment: as above
[4] = biological target: GST-Gemin2 S81A (human) (UniProt O14893); experiment: as above
[5] = biological target: GST-Gemin2 S81D (human) (UniProt O14893); experiment: as above
[6] = biological target: GFP-Gemin2 wt (human) (UniProt O14893); experiment: co-IP; GFP immunopurification: S100 extracts of doxycycline-induced (0.1 µg/mL, 24 h) Flp-In T-REx 293 cells on GFP-Trap beads, at least 2 h at 4 °C, washed 3 times with DPBS; Western blot
[7] = biological target: Gemin2 (endogenous) (human (endogenous in HEK293 cells)) (UniProt O14893); experiment: co-IP; endogenous immunopurification: 1 µg antibody on protein G/protein A beads, 1 mg HEK293 S100 extract, 2 h at 4 °C, washed with 50 mM Tris pH 7.5, 150 mM NaCl, 1 mM EDTA, 1 mM EGTA, 0.01% Igepal; Western blot

Measured: binding

ribosomal protein S6 kinase beta-1 (p70S6K) (from UniProt P23443) (enzyme)
binds: all assays above
